Experimental data: PMC6720452, “Structural Basis for Recruitment of DAPK1 to the KLHL20 E3 Ligase” (Structure(London, England:1993), 2019)
These are yes or no findings as the source states them, for the method shown.

Biological target: T1, KLHL20 Kelch domain (human) (UniProt Q9Y2M5)
T1 sequence: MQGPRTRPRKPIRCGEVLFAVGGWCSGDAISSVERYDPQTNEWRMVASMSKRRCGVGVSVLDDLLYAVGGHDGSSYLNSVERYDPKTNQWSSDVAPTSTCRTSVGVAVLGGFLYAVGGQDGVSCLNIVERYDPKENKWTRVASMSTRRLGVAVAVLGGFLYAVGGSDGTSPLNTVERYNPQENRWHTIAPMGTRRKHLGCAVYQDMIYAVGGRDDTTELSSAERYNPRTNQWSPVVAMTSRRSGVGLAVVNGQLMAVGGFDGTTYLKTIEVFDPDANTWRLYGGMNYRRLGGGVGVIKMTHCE
Assay: SPR; BIACORE S200, 25°C; Kelch domains of KLHL20 and KLHL3 immobilised by amine coupling on CM5; peptides injected at 1.6-200 μM in HBS-P, 30 μL/min; one-site steady-state affinity fit; both purified

**Q.** How did the binding turn out when SKLRELGRRDAADFLLKA [DAPK02 Peptide (DAPK1 residues 1,378-1,395)] was run?
**A.** The binding was “no binding (tested: 200 μM)”.
